Cleaved PARP in drug-treated melanoma cells

Values as published with doi:10.1371/journal.pone.0140310, rounded.

All values are for the listed drug together with ZM336372 (10 µM): Cc1ccc(NC(=O)c2cccc(N(C)C)c2)cc1NC(=O)c1ccc(O)cc1

Drugs:
OSU-03012 (5 µM): NCC(=O)Nc1ccc(-n2nc(C(F)(F)F)cc2-c2ccc3c(ccc4ccccc43)c2)cc1
XAV939 (10 µM): Oc1nc(-c2ccc(C(F)(F)F)cc2)nc2c1CSCC2
ENMD-2076 (0.2 µM): Cc1cc(Nc2cc(N3CCN(C)CC3)nc(/C=C/c3ccccc3)n2)n[nH]1
everolimus (0.1 µM): CO[C@H]1C[C@@H]2CC[C@@H](C)[C@@](O)(O2)C(=O)C(=O)N2CCCC[C@H]2C(=O)O[C@H]([C@H](C)C[C@@H]2CC[C@@H](OCCO)[C@H](OC)C2)CC(=O)[C@H](C)/C=C(\C)[C@@H](O)[C@@H](OC)C(=O)[C@H](C)C[C@H](C)/C=C/C=C/C=C/1C
fludarabine (1 µM): Nc1nc(F)nc2c1ncn2[C@@H]1O[C@H](CO)[C@@H](O)[C@@H]1O
vorinostat (0.4 µM): O=C(CCCCCCC(=O)Nc1ccccc1)NO
OSI-906 (2 µM): C[C@]1(O)C[C@@H](c2nc(-c3ccc4ccc(-c5ccccc5)nc4c3)c3c(N)nccn32)C1
MK-2206 (2 µM): NC1(c2ccc(-c3nc4ccn5c(=O)[nH]nc5c4cc3-c3ccccc3)cc2)CCC1
docetaxel (0.0005 µM): CC(=O)O[C@@]12CO[C@@H]1C[C@H](O)[C@@]1(C)C(=O)[C@H](O)C3=C(C)[C@@H](OC(=O)[C@H](O)[C@@H](NC(=O)OC(C)(C)C)c4ccccc4)C[C@@](O)([C@@H](OC(=O)c4ccccc4)[C@H]21)C3(C)C
tipifarnib (0.05 µM): Cn1cncc1[C@@](N)(c1ccc(Cl)cc1)c1ccc2c(c1)c(-c1cccc(Cl)c1)cc(=O)n2C
vincristine (0.0005 µM): CC[C@]1(O)C[C@H]2CN(CCc3c([nH]c4ccccc34)[C@@](C(=O)OC)(c3cc4c(cc3OC)N(C=O)[C@H]3[C@@](O)(C(=O)OC)[C@H](OC(C)=O)[C@]5(CC)C=CCN6CC[C@]43[C@@H]65)C2)C1
bortezomib (0.005 µM): CC(C)C[C@H](NC(=O)[C@H](Cc1ccccc1)NC(=O)c1cnccn1)B(O)O
CX-4945 (2 µM): O=C(O)c1ccc2c(c1)nc(Nc1cccc(Cl)c1)c1ccncc12
indole-3-carbinol (4 µM): OCc1c[nH]c2ccccc12
tamatinib (2 µM): COc1cc(Nc2ncc(F)c(Nc3ccc4c(n3)NC(=O)C(C)(C)O4)n2)cc(OC)c1OC
enzastaurin (4 µM): Cn1cc(C2=C(c3cn(C4CCN(Cc5ccccn5)CC4)c4ccccc34)C(=O)NC2=O)c2ccccc21

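Human melanoma cells were exposed to two drugs together for 72 h in 1,536-well plates and read by automated microscopy after fixing and staining. The read-out is the fraction of cleaved-PARP-positive nuclei, in % of that fraction in the DMSO control; 200 means twice the control level of this apoptosis marker. Concentrations were fixed for each drug; these are the higher of two levels. These are primary screening values without error estimates. The marker varies much from line to line, for technical or biological reasons.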 Only some of the drugs and lines screened are listed, without regard to their results. A dash means that no value is listed here.

Partner,WM3526,IPC-298,G-361,WM3619,A375,WM451Lu
everolimus,55.3,104,79.1,86.1,-,124
XAV939,95.6,40.6,60.6,130,57.9,121
bortezomib,1770,900,11400,2590,-,1100
tipifarnib,309,83.8,106,89.1,-,147
OSU-03012,660,159,341,177,-,166
MK-2206,63.8,93.8,73.8,95.2,-,89.4
CX-4945,303,93.1,191,130,-,126
vorinostat,142,83.4,164,119,-,380
OSI-906,79.6,38.9,81.7,78.2,-,98.2
ENMD-2076,439,141,121,104,-,68.1
docetaxel,2480,397,824,1030,-,1270
indole-3-carbinol,118,139,85.9,114,-,53.5
enzastaurin,152,31.6,81.9,69.4,-,66.3
fludarabine,3380,82.7,130,99.1,-,50.9
vincristine,633,146,36.8,180,-,880
tamatinib,153,46.3,194,129,-,166

Some entries from above, unchanged:

Partner,WM3526,IPC-298,G-361,WM3619,A375,WM451Lu
enzastaurin,152,31.6,81.9,69.4,-,66.3
OSI-906,79.6,38.9,81.7,78.2,-,98.2